These results are taken from the supplement of paper PMC12067093, “Discovery and optimisation of a covalent ligand for TRIM25 and its application to targeted protein ubiquitination” (Chemical Science, 2025).

Chains of the proteins cited; added tags and fusions are not shown. Lines headed by an entry give the natural chain unless they say otherwise; changes in a name come on top.
UniProt Q9H267: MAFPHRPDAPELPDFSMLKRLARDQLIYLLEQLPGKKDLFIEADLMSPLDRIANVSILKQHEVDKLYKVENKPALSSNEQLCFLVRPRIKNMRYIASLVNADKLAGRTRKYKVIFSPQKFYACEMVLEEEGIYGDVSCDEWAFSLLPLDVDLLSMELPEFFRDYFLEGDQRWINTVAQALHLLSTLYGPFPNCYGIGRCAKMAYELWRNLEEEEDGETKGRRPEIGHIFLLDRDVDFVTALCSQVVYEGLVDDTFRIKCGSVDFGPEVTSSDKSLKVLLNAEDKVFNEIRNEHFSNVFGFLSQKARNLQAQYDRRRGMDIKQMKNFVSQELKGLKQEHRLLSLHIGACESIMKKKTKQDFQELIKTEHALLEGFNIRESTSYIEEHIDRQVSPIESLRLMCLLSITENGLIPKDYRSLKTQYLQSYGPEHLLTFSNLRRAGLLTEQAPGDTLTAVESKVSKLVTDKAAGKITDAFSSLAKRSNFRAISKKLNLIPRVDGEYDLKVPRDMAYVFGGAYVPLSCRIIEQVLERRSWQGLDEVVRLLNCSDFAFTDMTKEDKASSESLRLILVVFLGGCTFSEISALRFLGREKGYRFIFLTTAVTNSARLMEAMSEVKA
UniProt O75691: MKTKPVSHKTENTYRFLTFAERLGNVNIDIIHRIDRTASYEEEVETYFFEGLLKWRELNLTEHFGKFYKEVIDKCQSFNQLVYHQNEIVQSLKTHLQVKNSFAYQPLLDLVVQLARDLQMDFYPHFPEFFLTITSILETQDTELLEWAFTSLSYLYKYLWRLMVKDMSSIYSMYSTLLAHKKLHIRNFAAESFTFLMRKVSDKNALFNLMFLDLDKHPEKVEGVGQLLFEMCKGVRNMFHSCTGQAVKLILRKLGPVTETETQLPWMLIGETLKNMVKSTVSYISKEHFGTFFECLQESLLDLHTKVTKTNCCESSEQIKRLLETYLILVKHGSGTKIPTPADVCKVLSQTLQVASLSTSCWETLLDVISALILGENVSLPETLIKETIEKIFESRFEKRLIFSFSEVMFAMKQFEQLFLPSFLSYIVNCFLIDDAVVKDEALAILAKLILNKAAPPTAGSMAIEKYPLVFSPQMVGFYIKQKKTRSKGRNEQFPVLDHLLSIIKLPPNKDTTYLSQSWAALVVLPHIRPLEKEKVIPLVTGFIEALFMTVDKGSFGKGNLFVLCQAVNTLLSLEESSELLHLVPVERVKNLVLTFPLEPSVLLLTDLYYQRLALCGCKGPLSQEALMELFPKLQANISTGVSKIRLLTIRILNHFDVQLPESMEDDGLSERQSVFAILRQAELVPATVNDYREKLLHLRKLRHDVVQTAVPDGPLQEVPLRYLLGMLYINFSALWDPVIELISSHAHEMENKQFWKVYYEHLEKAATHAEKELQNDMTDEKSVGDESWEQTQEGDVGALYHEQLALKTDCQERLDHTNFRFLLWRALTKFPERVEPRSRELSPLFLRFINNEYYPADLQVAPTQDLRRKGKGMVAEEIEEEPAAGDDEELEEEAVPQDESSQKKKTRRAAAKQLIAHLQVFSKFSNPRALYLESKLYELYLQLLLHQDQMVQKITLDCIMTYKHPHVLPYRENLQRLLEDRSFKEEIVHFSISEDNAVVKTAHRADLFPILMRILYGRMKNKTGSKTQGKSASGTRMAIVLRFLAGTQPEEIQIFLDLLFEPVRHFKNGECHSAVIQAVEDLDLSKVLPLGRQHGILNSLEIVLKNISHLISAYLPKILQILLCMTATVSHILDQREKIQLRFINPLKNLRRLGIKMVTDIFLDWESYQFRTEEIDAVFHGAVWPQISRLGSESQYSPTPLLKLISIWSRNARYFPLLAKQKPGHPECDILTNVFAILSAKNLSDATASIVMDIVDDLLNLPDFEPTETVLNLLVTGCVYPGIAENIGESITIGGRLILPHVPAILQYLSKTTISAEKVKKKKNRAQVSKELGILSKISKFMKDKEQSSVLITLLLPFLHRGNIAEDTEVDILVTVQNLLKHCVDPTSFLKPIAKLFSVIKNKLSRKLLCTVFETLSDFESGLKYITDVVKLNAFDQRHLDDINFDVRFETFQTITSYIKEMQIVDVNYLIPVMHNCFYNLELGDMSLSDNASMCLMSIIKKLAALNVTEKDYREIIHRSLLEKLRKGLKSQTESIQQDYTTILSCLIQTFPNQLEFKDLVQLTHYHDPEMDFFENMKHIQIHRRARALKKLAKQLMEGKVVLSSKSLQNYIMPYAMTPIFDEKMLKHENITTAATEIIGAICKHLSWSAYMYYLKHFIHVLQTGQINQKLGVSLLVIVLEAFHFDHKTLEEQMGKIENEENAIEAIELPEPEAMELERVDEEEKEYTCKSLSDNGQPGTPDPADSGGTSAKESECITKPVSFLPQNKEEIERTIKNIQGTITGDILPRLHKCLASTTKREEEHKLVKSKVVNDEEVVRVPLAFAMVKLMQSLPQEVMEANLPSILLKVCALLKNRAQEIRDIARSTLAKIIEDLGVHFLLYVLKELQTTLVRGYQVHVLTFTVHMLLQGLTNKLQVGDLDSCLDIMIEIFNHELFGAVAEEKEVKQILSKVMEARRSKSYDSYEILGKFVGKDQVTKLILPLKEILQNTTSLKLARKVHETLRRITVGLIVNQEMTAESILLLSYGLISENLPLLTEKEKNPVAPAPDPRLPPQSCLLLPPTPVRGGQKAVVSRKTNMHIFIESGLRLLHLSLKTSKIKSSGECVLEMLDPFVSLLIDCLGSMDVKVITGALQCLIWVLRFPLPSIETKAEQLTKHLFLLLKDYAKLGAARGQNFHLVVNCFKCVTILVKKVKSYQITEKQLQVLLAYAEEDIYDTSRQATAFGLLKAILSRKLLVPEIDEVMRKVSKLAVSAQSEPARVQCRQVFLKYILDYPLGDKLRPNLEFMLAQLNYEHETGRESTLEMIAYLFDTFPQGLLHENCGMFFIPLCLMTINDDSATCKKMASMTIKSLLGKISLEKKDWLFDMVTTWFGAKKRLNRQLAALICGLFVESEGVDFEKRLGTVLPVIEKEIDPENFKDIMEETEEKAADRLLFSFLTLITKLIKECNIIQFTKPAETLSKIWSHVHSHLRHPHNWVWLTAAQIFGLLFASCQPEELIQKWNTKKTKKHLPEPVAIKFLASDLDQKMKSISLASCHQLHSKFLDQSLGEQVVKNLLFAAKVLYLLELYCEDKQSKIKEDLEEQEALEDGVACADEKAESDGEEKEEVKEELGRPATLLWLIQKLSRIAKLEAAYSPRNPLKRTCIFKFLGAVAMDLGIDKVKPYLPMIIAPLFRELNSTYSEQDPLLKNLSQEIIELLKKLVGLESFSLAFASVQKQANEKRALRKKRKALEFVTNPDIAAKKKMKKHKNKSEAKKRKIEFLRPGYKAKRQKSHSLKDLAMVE
UniProt P18206: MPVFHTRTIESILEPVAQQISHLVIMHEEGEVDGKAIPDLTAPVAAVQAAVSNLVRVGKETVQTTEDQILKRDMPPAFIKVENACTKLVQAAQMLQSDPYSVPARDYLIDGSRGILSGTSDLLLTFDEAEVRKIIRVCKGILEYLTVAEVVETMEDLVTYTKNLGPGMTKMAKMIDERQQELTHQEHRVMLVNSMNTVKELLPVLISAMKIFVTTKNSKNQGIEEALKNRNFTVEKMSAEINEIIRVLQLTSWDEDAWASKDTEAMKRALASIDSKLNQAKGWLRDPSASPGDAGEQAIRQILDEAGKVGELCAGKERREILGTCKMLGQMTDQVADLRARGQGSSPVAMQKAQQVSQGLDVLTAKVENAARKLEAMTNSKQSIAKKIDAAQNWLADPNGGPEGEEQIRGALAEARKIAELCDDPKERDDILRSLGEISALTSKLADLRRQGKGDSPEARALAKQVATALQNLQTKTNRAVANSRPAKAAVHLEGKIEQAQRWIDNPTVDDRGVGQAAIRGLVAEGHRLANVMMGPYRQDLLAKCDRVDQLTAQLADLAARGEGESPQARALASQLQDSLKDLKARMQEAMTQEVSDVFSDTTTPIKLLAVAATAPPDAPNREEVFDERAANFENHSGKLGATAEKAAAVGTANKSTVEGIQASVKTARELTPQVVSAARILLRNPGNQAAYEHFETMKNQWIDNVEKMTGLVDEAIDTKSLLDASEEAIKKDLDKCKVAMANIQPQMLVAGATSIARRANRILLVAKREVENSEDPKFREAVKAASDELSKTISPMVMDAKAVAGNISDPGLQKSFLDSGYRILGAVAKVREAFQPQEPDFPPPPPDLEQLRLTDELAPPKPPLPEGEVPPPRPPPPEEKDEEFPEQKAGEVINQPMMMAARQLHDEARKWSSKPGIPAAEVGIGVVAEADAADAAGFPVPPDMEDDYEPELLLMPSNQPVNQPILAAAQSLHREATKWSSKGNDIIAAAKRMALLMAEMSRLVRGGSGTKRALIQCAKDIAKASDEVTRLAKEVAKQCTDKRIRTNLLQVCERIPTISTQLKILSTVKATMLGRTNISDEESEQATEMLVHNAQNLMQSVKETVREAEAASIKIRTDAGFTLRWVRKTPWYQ
UniProt Q8IV63: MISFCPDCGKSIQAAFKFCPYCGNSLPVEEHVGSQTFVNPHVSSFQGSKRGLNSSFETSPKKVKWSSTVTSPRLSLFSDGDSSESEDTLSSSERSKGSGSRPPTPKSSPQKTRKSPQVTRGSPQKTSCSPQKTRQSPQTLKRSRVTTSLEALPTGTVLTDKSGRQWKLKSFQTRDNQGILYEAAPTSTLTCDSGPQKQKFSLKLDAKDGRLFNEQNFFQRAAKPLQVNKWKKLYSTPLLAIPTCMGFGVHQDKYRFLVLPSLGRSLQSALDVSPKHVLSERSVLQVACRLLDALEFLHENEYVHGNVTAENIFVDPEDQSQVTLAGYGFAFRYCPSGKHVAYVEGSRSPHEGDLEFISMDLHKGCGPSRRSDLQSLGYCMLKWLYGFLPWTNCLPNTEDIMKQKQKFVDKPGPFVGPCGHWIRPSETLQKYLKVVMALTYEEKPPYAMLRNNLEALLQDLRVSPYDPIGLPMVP
UniProt Q96JC1: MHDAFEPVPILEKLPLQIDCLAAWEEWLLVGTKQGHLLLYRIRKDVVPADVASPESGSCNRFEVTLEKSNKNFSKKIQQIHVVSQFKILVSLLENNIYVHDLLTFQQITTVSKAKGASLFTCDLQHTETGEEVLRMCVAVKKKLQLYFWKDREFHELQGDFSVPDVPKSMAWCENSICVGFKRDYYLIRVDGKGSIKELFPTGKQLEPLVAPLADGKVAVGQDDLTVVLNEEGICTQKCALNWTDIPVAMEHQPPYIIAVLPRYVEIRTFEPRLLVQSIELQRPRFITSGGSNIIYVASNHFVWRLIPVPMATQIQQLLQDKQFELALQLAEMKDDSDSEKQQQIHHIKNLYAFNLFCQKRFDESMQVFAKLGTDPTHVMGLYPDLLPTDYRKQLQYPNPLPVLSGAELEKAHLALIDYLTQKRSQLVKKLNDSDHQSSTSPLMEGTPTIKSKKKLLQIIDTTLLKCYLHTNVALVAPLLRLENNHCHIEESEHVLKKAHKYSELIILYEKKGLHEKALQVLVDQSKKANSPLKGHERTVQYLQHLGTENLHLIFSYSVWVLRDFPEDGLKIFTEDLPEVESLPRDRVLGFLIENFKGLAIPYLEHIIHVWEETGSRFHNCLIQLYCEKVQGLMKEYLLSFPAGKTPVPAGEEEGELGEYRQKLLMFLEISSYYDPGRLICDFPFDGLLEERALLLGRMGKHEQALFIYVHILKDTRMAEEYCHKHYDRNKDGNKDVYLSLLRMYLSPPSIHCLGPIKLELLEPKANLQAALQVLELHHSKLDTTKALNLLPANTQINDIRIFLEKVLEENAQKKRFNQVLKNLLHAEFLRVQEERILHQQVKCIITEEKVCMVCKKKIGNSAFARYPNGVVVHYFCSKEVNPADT
UniProt Q86VN1: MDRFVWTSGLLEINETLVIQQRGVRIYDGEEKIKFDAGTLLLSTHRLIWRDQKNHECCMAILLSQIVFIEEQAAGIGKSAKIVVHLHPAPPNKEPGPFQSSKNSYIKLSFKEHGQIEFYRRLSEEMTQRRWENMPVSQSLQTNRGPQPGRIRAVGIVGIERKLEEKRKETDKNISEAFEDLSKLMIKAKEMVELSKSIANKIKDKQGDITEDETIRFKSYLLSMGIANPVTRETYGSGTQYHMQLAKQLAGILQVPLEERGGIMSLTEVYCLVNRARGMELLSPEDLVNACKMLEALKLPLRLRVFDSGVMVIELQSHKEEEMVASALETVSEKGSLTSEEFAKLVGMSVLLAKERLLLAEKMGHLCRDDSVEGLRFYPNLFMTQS
UniProt Q8N0U8: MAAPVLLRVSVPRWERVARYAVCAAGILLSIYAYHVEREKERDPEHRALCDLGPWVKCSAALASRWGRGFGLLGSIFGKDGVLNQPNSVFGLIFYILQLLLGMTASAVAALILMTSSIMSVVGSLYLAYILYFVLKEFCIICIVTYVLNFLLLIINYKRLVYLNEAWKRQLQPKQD

Compound in this test: CC1Cc2ccccc2N1C(=O)C1CCCN(C1)C(=O)CCl (mixture of isomers) [TRIM25 ligand 11 (diastereomer mixture)]
The experiment in a line: probe-labelled cysteine peptide fold change vs DMSO (competition) (log2 fold change); higher = less target engagement (more negative = stronger competition). Conditions: THP-1, incubation time: 4 h.

This is one part of the list.
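Further: competitive chemoproteomic profiling in live THP-1 cells with an iodoacetamide desthiobiotin (IA-DTB) probe, comparing probe-labelled peptide intensities in compound-treated cells against DMSO-treated controls.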

On to “UTRN_P46939_1218_VPSGGQELTSELNVVLENYQLLCNR (UniProt P46939)”, for which the “probe-labelled cysteine peptide fold change” value was -0.243 (10 µM) and 0.00523 (50 µM).
As for “VCPIP1_Q96JH7_207+219_SQECLIPVHVDGDGHCLVHAVSR (UniProt Q96JH7)”, the “probe-labelled cysteine peptide fold change” value was -0.42 (10 µM) and -1.06 (50 µM).
Take “VPS13C_Q709C8_2906_WNYIASSECLPFWPESLSGK (UniProt Q709C8)”: the “probe-labelled cysteine peptide fold change” value is, setting by setting: (10 µM) -0.143; (50 µM) 0.254.
On the same counts, the results for “VARS_P26640_194_WFVTCVR (UniProt P26640)” are -0.214 and 0.167.
For the target “VPS33B_Q9H267_82_VENKPALSSNEQLCFLVRPR (UniProt Q9H267)”, the “probe-labelled cysteine peptide fold change” value amounted to 0.00364 (10 µM) and 0.141 (50 µM).
In the case of “VIRMA_Q69YN4_1170_SFSGTTCQPIQHMLR (UniProt Q69YN4)”, the “probe-labelled cysteine peptide fold change” value stood at 0.00804 (10 µM) and 0.274 (50 µM).
On the same counts, the results for “UTP20_O75691_2571_VLYLLELYCEDK (UniProt O75691)” are 0.207 and 0.37.
“VCL_P18206_422_IAELCDDPKERDDILR (UniProt P18206)”: the “probe-labelled cysteine peptide fold change” value by setting is: (10 µM) -0.172; (50 µM) -0.112.
On the same counts, the results for “VPS33A_Q96AX1_163_ECYLEGDQTSLYHAAK (UniProt Q96AX1)” are 0.202 and 0.0498.
On the same counts, the results for “VLDLR_P98155_127_IHEISCGAHSTQCIPVSWR (UniProt P98155)” are 0.112 and 0.0305.
On the same counts, the results for “VRK3_Q8IV63_288_SVLQVACR (UniProt Q8IV63)” are -0.016 and 0.0415.
For “VPS13C_Q709C8_3723_ACNAIEDAQSTR (UniProt Q709C8)”, the “probe-labelled cysteine peptide fold change” value is -0.104 (10 µM) and -0.104 (50 µM).
Consider “VAMP7_P51809_56_LTYSHGNYLFHYICQDR (UniProt P51809)”, for which the “probe-labelled cysteine peptide fold change” value runs as follows: (10 µM) 0.291; (50 µM) 0.218.
On the same counts, the results for “VCPIP1_Q96JH7_127_VMGLSNYHCK (UniProt Q96JH7)” are -0.0347 and -0.224.
On the same counts, the results for “UTP20_O75691_2388_QLAALICGLFVESEGVDFEKR (UniProt O75691)” are 0.122 and 0.227.
Consider “UTRN_P46939_2185_ECIQEPSSVSQTR (UniProt P46939)”, for which the “probe-labelled cysteine peptide fold change” value (10 µM) turned out to be 0.0627 and the “probe-labelled cysteine peptide fold change” value (50 µM) turned out to be 0.0855.
On the same counts, the results for “VPS28_Q9UK41_96_QVQGSEISSIDEFCR (UniProt Q9UK41)” are -0.0943 and 0.105.
On to “USP9Y_O00507_684_CLAENAVYLCDR (UniProt O00507)”, for which the “probe-labelled cysteine peptide fold change” value amounted to 0.141 (10 µM) and 0.101 (50 µM).
On the same counts, the results for “VPS39_Q96JC1_358_NLYAFNLFCQK (UniProt Q96JC1)” are 0.106 and 0.224.
As for “VPS39_Q96JC1_235_VAVGQDDLTVVLNEEGICTQK (UniProt Q96JC1)”, the “probe-labelled cysteine peptide fold change” value reads like this: (10 µM) -0.00872; (50 µM) -0.0751.
With “UXS1_Q8NBZ7_242_VAETMCYAYMK (UniProt Q8NBZ7)”, the “probe-labelled cysteine peptide fold change” value reads like this: (10 µM) -0.0496; (50 µM) -0.176.
Regarding “VPS39_Q96JC1_239_CALNWTDIPVAMEHQPPYIIAVLPR (UniProt Q96JC1)”, the “probe-labelled cysteine peptide fold change” value (10 µM) was 0.176 and the “probe-labelled cysteine peptide fold change” value (50 µM) was -0.0862.
On the same counts, the results for “VPS36_Q86VN1_271_GGIMSLTEVYCLVNR (UniProt Q86VN1)” are 5.03e-06 and 0.0661.
On the same counts, the results for “VCL_P18206_1018_ALIQCAK (UniProt P18206)” are -0.0782 and 0.125.
On the same counts, the results for “VKORC1L1_Q8N0U8_58_CSAALASR (UniProt Q8N0U8)” are -0.0906 and 0.0327.
As to “VPS11_Q9H270_586_EAPGCR (UniProt Q9H270)”, the “probe-labelled cysteine peptide fold change” value by setting is: (10 µM) 0.694; (50 µM) 1.1.
For “UVRAG_Q9P2Y5_204_AQCAIK (UniProt Q9P2Y5)”, the “probe-labelled cysteine peptide fold change” value reads like this: (10 µM) -0.119; (50 µM) 0.075.
“USP9Y_O00507_1735_ICQGCPHRYECEESFTTLNVDIR (UniProt O00507)”: the “probe-labelled cysteine peptide fold change” value by setting is: (10 µM) -0.133; (50 µM) -0.0638.
Take “VPS13C_Q709C8_1613_ITAELNAFNVFVCDQK (UniProt Q709C8)”: the “probe-labelled cysteine peptide fold change” value is, setting by setting: (10 µM) -0.0795; (50 µM) 0.0743.
On to “USP9Y_O00507_1910_FDDGDVTECK (UniProt O00507)”, for which the “probe-labelled cysteine peptide fold change” value by setting is: (10 µM) 0.18; (50 µM) 0.0303.
On the same counts, the results for “VPS33B_Q9H267_259_CGSVDFGPEVTSSDK (UniProt Q9H267)” are 0.178 and 0.27.
For “VPS8_Q8N3P4_564_KCPDQGK (UniProt Q8N3P4)”, the “probe-labelled cysteine peptide fold change” value is, setting by setting: (10 µM) 0.103; (50 µM) 0.0855.
On the same counts, the results for “VCP_P55072_691_MTNGFSGADLTEICQR (UniProt P55072)” are -0.0324 and 0.00465.
In the case of “VPS35_Q96QK1_137_DLVEMCR (UniProt Q96QK1)”, the “probe-labelled cysteine peptide fold change” value (10 µM) is 0.0601 and the “probe-labelled cysteine peptide fold change” value (50 µM) was -0.0105.
